Results reported in PubChem BioAssay AID493014 (National Center for Advancing Translational Sciences (NCATS), 2011).
Screen size: about 340,000 compounds; about 170 (0.05%) were called active. This list was built around the results that the source calls inconclusive (neither active nor inactive); the mix of calls is not that of the screen. Calls follow the shape of the dose curve; as a rule, active = well fitted inhibition curve with a large enough effect in the signal ratio, with a control signal flat (not every such curve was filed as active); inconclusive = small, poorly fitted or top-dose-only effect, or effect the other way, or a change in a side signal; inactive = flat fitted curve, though single readings scatter; the % refers to the signal ratio. Potencies of inconclusive entries are doubtful fits and often do not repeat.

Assay: qHTS Assay to Find Inhibitors of Chronic Active B-Cell Receptor Signaling;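 as to activity change, negative = inhibition: plate controls were basal doxycycline-induced cells for no effect and cells given 10 µM MG132 for full effect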
Conditions: ABC-DLBCL IkBa-CBG/CBR reporter, luminescence ratio (green luciferase fused to IkBa over red control in TMD8 lymphoma cells), 4 h; activity change, negative = inhibition: at 46.1 µM (top of the series)
In short: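 Cell line TMD8 (human ABC DLBCL), stably expressing tet-inducible CBG68-IkBa fusion and CBR; IMDM/0.5% FBS; cpd up to 46 uM; dox induction, 4 h, 37C/5% CO2; dual luminescence; green/red ratio; MG132 control.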
Potency is read from the fitted curve at half-maximal effect.

| SMILES | activity change, negative = inhibition | Potency |
| --- | --- | --- |
| Cc1ccc(S(=O)(=O)Nc2c(O)c3ccccc3oc2=O)cc1C | inconclusive: 329% |  |
| Cc1nc2ncnn2c(C)c1CCC(=O)NCc1ccc2c(c1)OCO2 | inconclusive: -8.55% |  |
| O=C(CSc1nccn(-c2ccc(F)c(F)c2)c1=O)NC1CCCC1 |  | inconclusive: 23.1 µM [falling, single point] |
| O=C(NCCc1ccccc1)c1ccc(Cl)c(S(=O)(=O)N2CCOCC2)c1 | inactive |  |
| COc1ccc(-c2ccn(-c3cccc(F)n3)n2)cc1 | inactive |  |
| Cc1sc2ncnc(N3CCN(c4ncccn4)CC3)c2c1C | inactive |  |
| Nc1nc(-c2c(Cl)cccc2Cl)no1 | inconclusive: -1.06% |  |
| Cc1c(N=CN2CCOCC2)c(=O)n(C)c(=O)n1C | inconclusive: 13.5% |  |
| O=c1c2ccccc2nc2n1C(CBr)CN2 (stereo not drawn) | inconclusive: 3.18% |  |
| O=C1NC(=S)S/C1=C\C=C\c1ccc([N+](=O)[O-])o1 | inconclusive: 22.2% |  |
| Nc1nc(/C=C/c2cccnc2)nc(-c2ccccc2O)n1 | inconclusive: 24.2% |  |
| OC(COCC(F)(F)C(F)(F)C(F)(F)C(F)F)Cn1c2ccc(Cl)cc2c2cc(Cl)ccc21 (stereo not drawn) |  | inconclusive: 11.6 µM [rising, partial curve] |
| CC(=O)c1c(C)[nH]c(C2=NNC(=NC(C)(C)C)SC2)c1C |  | inconclusive: 12.6 µM [falling, single point] |
| Cc1ccccc1OCC(=O)Nc1cc(S(=O)(=O)N2CCOCC2)ccc1N1CCCC1 | inconclusive: -8.51% |  |
| Cc1cc(C)n2ncc(/C(N)=N/OC(=O)Nc3ccc(Cl)cc3)c2n1 | inconclusive: 10% |  |
| Cc1ccc2c(C)ccc(O)c2n1 | inconclusive: 16.9% |  |
| CN1C(=O)NC(c2ccc([N+](=O)[O-])cc2)C2=C1CC(C)(C)CC2=O (stereo not drawn) | inconclusive: 1.77% |  |
| Cn1c(CCNC(=O)c2ccco2)nc2cc(NS(=O)(=O)c3ccccc3)ccc21 | inactive |  |
| CCc1cc(C(=O)NNC(=S)Nc2cc(C)ccc2C)cs1 |  | inconclusive: 3.66 µM [falling, full curve] |
| O=C(c1ccccc1)N1CCN(C(=O)C23CC4CC(CC(C4)C2)C3)CC1 | inconclusive: 0.522% |  |
| OCCSc1nnc(Nc2ccccc2)s1 |  | inconclusive: 20 µM [falling, partial curve, poor fit] |

| SMILES | activity change, negative = inhibition | Potency |
| --- | --- | --- |
| CS(=O)(=O)c1ccc2nc(NC(=O)CCNC(=O)c3ccc([N+](=O)[O-])cc3)sc2c1 | inconclusive: 1.5% |  |
| CCC(Sc1nc2cc(OC)c(OC)cc2c(=O)n1Cc1ccco1)C(=O)NCCOC (stereo not drawn) | inconclusive: 10.3% |  |
| O=C1c2ccccc2NC(c2cccc(Cl)c2)N1N=C1CCCCCC1 (stereo not drawn) | inactive |  |
| C=CCOC(=O)CN1C(=O)c2ccccc2C1=O | inconclusive: 3.33% |  |
| CC(C)NC(=O)c1ccc2c3n(nc2c1)-c1ccccc1CO3 | inactive |  |
| CCOc1cc(NC(=O)C2CCCCC2)c(OCC)cc1NC(=O)c1ccco1 | inactive |  |
| CN=C1SC(CC(=O)Nc2sc(C)c(C)c2C(=O)OC)C(=O)N1C (stereo not drawn) | inconclusive: -3.54% |  |
| CN1CCN(Cc2c(O)ccc3cc(-c4ccccn4)c(=O)oc23)CC1 | inactive |  |
| CSCCC1NC(=O)N(CC(=O)Nc2cccc(S(=O)(=O)N3CCCCCC3)c2)C1=O (stereo not drawn) | inactive |  |
| O=C(Nc1ccc(NC(=S)NC(=O)c2cccs2)cc1)c1ccccc1 |  | inconclusive: 1.46 µM [falling, partial curve, poor fit] |
| CCOC(=O)c1c(C)[nH]c(C)c1C(=O)COC(=O)CNC(=O)c1ccc(OCC)cc1 | inconclusive: -0.493% |  |
| CC1(C(=O)NCC2CCCO2)Oc2cccnc2NC1=O (stereo not drawn) | inconclusive: 13.8% |  |
| CCOc1ccccc1C1CC(c2cccc(NS(C)(=O)=O)c2)=NN1C(=O)c1ccccc1 (stereo not drawn) | inconclusive: -2.86% |  |
| COc1ccc(C(CNC(=O)c2cc3ccccc3cc2OC)N2CCCC2)cc1 (stereo not drawn) | inconclusive: 22.2% |  |
| O=C(Nc1ccc(Cl)cc1)c1cccc(S(=O)(=O)Nc2ccccn2)c1 | inconclusive: 5.82% |  |
| Cc1ccc2nc(/C(C#N)=N/O)[nH]c2c1 | inconclusive: 19.4% |  |
| COc1ccc(S(=O)(=O)Oc2ccccc2C(=S)N2CCOCC2)cc1 | inactive |  |
| CCCC(=O)Nc1nnc(-c2ccco2)s1 | inconclusive: 1.82% |  |
| CCCn1c(N)c(C(=O)CSc2nnnn2-c2ccc(O)cc2)c(=O)n(C)c1=O |  | inconclusive: 0.58 µM [rising, full curve, poor fit] |
| Nc1ccc(C(=O)c2cccs2)cc1[N+](=O)[O-] | inconclusive: 2.02% |  |
| O=C(Nc1ccc(Cl)cc1)N1CCOCC1 | inconclusive: 8.12% |  |

| SMILES | activity change, negative = inhibition | Potency |
| --- | --- | --- |
| CCC(Oc1cc(Cl)ccc1Cl)C(=O)N1CCCN(C)CC1 (stereo not drawn) | inactive |  |
| COC(=O)c1ccc(/C=N/NC(=O)CC(=O)NC(C)C)cc1 | inactive |  |
| O=C(Nc1ccc(F)cc1)c1cc2ccccc2o1 |  | inconclusive: 31.6 µM [falling, partial curve] |
| Cc1cccc(C(=O)O/N=C/c2c(Cl)n(C)c3ccccc23)c1 | inconclusive: 11.4% |  |
| CCCCC[n+]1ccn(C2=C([O-])c3ccccc3C(=O)/C2=N\S(=O)(=O)c2ccccc2)c1 | inconclusive: -0.447% |  |
| O=C1CCCc2c1cc(C(=O)Nc1ccc(Br)cn1)c(=O)n2-c1ccccc1 | inconclusive: 13.9% |  |
| Cn1c(SCn2nnc3ccccc3c2=O)nc2ccccc2c1=O | inconclusive: 3.53% |  |
| CCCCCCCN1C(Nc2ccccc2)=NC[C@@H]1CC(C)C |  | inconclusive: 22.4 µM [falling, partial curve, poor fit] |
| CCOc1cc(N2CCOCC2)c(OCC)cc1NC(=O)c1ccccc1 | inconclusive: 12.2% |  |
| COc1ccc(OC)c(C(C)NC(=O)Nc2cccc(C(C)=O)c2)c1 (stereo not drawn) | inconclusive: 1.25% |  |
| COC(=O)C1CCN(C(=O)c2c(-c3ccccc3Cl)noc2C)CC1 | inconclusive: -0.627% |  |
| O=C(O)c1ccc(N=Cc2c(O)ccc3oc4c(c23)CCCC4)cc1 | inconclusive: -0.828% |  |
| O=C(O)c1cccc(CN2C(=O)SC(Nc3ccccc3)C2=O)c1 (stereo not drawn) | inactive |  |
| Cc1ccc(C2=CC(c3ccccc3C)n3c(nc4ccccc43)N2)cc1 (stereo not drawn) |  | inconclusive: 4.47 µM [falling, partial curve] |
| CCOc1ccc(C2=NNC(c3cccs3)=Nc3ccc(OCC)cc32)cc1 | inconclusive: 5.65% |  |
| CC(C)C1=NN2C(=N)CC(=O)N=C2S1 | inconclusive: -11.5% |  |
| CN(C)CCCNC(=O)C[C@H]1C[C@H](C(=O)N2CCCCC2)[C@@]2(CCc3ccccc3)c3[nH]c4ccc(Cl)cc4c3CCN2C1=O | inconclusive: 3.72% |  |
| Nc1nc2ccc(C(=O)Nc3ccccc3)cc2s1 |  | inconclusive: 15.8 µM [falling, partial curve] |
| CSCCC(NS(=O)(=O)c1ccccc1)C(=O)OC(C)C(=O)Nc1ccc(Cl)cn1 (stereo not drawn) | inconclusive: 3.49% |  |
| CC(=O)c1cccc(CN2CCC(C(=O)Nc3cccc(-c4ccn[nH]4)c3)CC2)c1 |  | inconclusive: 12.6 µM [falling, partial curve, poor fit] |
| COc1ccc(Cc2nnc(SCC(=O)c3c(N)n(C4CC4)c(=O)[nH]c3=O)o2)cc1 | inconclusive: -1.23% |  |

| SMILES | activity change, negative = inhibition | Potency |
| --- | --- | --- |
| Cc1cccc(NC(=O)C2CCN(c3nc(C)cc(C)n3)CC2)c1 | inactive |  |
| COCc1cc(C)nc2sc(C(=O)Nc3ccc(OC)cc3)c(N)c12 | inactive |  |
| Cc1[nH][nH]c(=O)c1C(c1c(C)[nH][nH]c1=O)c1cn(Cc2ccc(Cl)c(Cl)c2)c2ccccc12 |  | inconclusive: 4.11 µM [cytotoxic, partial curve] |
| COc1ccc(S(=O)(=O)N(C)CC(=O)Nc2ccccc2C(F)(F)F)cc1 | inconclusive: -14.4% |  |
| COc1cc(F)c(S(=O)(=O)N2CCOc3ccccc32)cc1OC | inconclusive: 0.376% |  |
| CNC(=O)NC(=O)C(NC1CCCc2ccccc21)c1ccccc1 (stereo not drawn) | inconclusive: -62.3% |  |
| CCNC(=O)C1CC(=O)N(Cc2ccc3c(c2)OCO3)C(=Nc2ccc(F)cc2)S1 (stereo not drawn) | inactive |  |
| CCC1CCCCN1S(=O)(=O)c1ccc(C(=O)N(CCCN(C)C)c2nc3cc4c(cc3s2)OCO4)cc1 (stereo not drawn) | inconclusive: -20.8% |  |
| O=C1/C(=C\c2cccc([N+](=O)[O-])c2O)SC(=S)N1Cc1ccccc1 | inactive |  |
| CCCCCC(=O)Nc1cccc(C2=NOC3(C2)C[C@H](C(N)=O)N(C(=O)CC)C3)c1 (stereo partly drawn) |  | inconclusive: 20 µM [falling, single point] |
| CN(c1ccccc1)S(=O)(=O)c1cccc(NC(=O)Cc2n[nH]c(=O)c3ccccc23)c1 |  | inconclusive: 20.6 µM [falling, partial curve, poor fit] |
| O=C(N/N=C\c1ccco1)Nc1cccc(Cl)c1 |  | inconclusive: 25.9 µM [falling, partial curve] |
| O=C(Cc1c(O)c2ccccc2[nH]c1=O)NC1CCCCCC1 | inconclusive: -13.5% |  |
| CCn1cnc2cc(NCc3ccc(C)cc3)ccc21 | inconclusive: 14.5% |  |
| Cc1[nH]nc(-c2ccc(OCc3cnn(-c4ccccc4)c3)cc2O)c1Oc1ccc(Cl)cc1 | inconclusive: 14.9% |  |
| O/N=C/c1cc(Cl)ccc1OCc1cccc2ccccc12 | inconclusive: 24.8% |  |
| Cc1ccc(C)c(NNC(N)=S)c1 | inactive |  |
| N/C(=N\OC(=O)COc1ccccc1)c1ccccn1 |  | inconclusive: 18.4 µM [falling, partial curve] |
| COc1ccccc1[C@@H]1C(c2ccccc2)=NN(c2ccc(Br)cc2)[C@H]1C(=O)N1CCOC1=O | inconclusive: 2.45% |  |
| CN(C)CCN(C(=O)CCc1ccccc1)c1nc2c(F)cc(F)cc2s1 | inconclusive: -14.1% |  |

Rewritten with bars between the fields: part of the list above
SMILES | activity change, negative = inhibition | Potency
CNC(=O)NC(=O)C(NC1CCCc2ccccc21)c1ccccc1 (stereo not drawn) | inconclusive: -62.3% | 
CCNC(=O)C1CC(=O)N(Cc2ccc3c(c2)OCO3)C(=Nc2ccc(F)cc2)S1 (stereo not drawn) | inactive | 
